Values from PubChem BioAssay AID1259308 (NCATS, 2017).

Assay: 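Genes whose loss raises luciferase production in HEK293 cells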 (primary screen)
Cells: human HEK293 embryonic kidney cells stably expressing firefly luciferase (HEK-CMV-Luc2-Hygro)
Reagent: single siRNA against human genes, 0.8 pmol siRNA per well
Duration: 72 h
Read-out: 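Reporter luminescence and viable-cell signal on separate replicate plates, given as percent of non-targeting control and median/MAD z-scores, plus per-cell luciferase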
Reading the numbers: total luciferase, z-score and total luciferase, % of control: higher = more reporter protein produced
Rule for the call: 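An siRNA counts as active if its total luciferase robust z-score exceeds 3; genes with two or more such siRNAs out of three were retested with fresh siRNAs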
Calls: active = raised luciferase; inactive = no rise
In all, the deposit lists about 59,000 reagents; below is an unselected part. About 1,510 of them (2.6%) were called active. 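Calls use total luciferase alone and ignore viability, so some active siRNAs may act by altering cell number.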 Unmarked entries are inactive. The numbers tell different reagents against one gene apart. Further read-outs or replicates are left out here.

| gene knocked down | reagent no. | total luciferase, z-score | total luciferase, % of control |
| --- | --- | --- | --- |
| OR52A1 (olfactory receptor family 52 subfamily A member 1) | 1 | 0.323 | 88.3 |
| OR52A1 (olfactory receptor family 52 subfamily A member 1) | 2 | -0.127 | 79.4 |
| OR52A1 (olfactory receptor family 52 subfamily A member 1) | 3 | 0.727 | 96.3 |
| PLEKHH1 (pleckstrin homology, MyTH4 and FERM domain containing H1) | 1 | -0.681 | 68.3 |
| PLEKHH1 (pleckstrin homology, MyTH4 and FERM domain containing H1) | 2 | 0.15 | 84.9 |
| PLEKHH1 (pleckstrin homology, MyTH4 and FERM domain containing H1) | 3 | 0.0973 | 83.8 |
| PAGE1 (PAGE family member 1) | 1 | -0.652 | 68.9 |
| PAGE1 (PAGE family member 1) | 2 | 0.047 | 82.8 |
| PAGE1 (PAGE family member 1) | 3 | -2.46 | 33 |
| RPA3 (replication protein A3) | 1 | 0.577 | 93.4 |
| RPA3 (replication protein A3) | 2 | -1.94 | 43.4 |
| RPA3 (replication protein A3) | 3 | 0.645 | 94.7 |
| DMRT2 (doublesex and mab-3 related transcription factor 2) | 1 | -0.0751 | 80.4 |
| DMRT2 (doublesex and mab-3 related transcription factor 2) | 2 | 0.00452 | 82 |
| DMRT2 (doublesex and mab-3 related transcription factor 2) | 3 | 1.41 | 110 |
| CHI3L1 (chitinase 3 like 1) | 1 | -0.235 | 77.2 |
| CHI3L1 (chitinase 3 like 1) | 2 | 1.68 | 115 |
| CHI3L1 (chitinase 3 like 1) | 3 | 0.112 | 84.1 |
| RGS11 (regulator of G protein signaling 11) | 1 | -1.38 | 54.5 |
| RGS11 (regulator of G protein signaling 11) | 2 | 0.115 | 84.2 |
| RGS11 (regulator of G protein signaling 11) | 3 | -0.0433 | 81 |
| TMEM266 (transmembrane protein 266) | 1 | -0.000631 | 81.9 |
| TMEM266 (transmembrane protein 266) | 2 | 2.35 | 129 |
| TMEM266 (transmembrane protein 266) | 3 | 1.02 | 102 |
| RNASE2CP (ribonuclease A family member 2C, pseudogene) | 1 | 0.107 | 84 |
| RNASE2CP (ribonuclease A family member 2C, pseudogene) | 2 | 1.72 | 116 |
| RNASE2CP (ribonuclease A family member 2C, pseudogene) | 3 | -0.0915 | 80.1 |
| NCKAP1 (NCK associated protein 1) | 1 | -1.06 | 60.7 |
| NCKAP1 (NCK associated protein 1) | 2 | -1.23 | 57.5 |
| NCKAP1 (NCK associated protein 1) | 3 | -0.895 | 64.1 |
| PTCHD4 (patched domain containing 4) | 1 | 0.0551 | 83 |
| PTCHD4 (patched domain containing 4) | 2 | 0.0688 | 83.3 |
| PTCHD4 (patched domain containing 4) | 3 | -0.461 | 72.7 |
| SNAI3 (snail family transcriptional repressor 3) | 1 | 0.52 | 92.2 |
| SNAI3 (snail family transcriptional repressor 3) | 2 | 0.286 | 87.6 |
| SNAI3 (snail family transcriptional repressor 3) | 3 | -1.49 | 52.3 |
| NFE2L2 (NFE2 like bZIP transcription factor 2) | 1 | 0.508 | 92 |
| NFE2L2 (NFE2 like bZIP transcription factor 2) | 2 | -0.47 | 72.5 |
| NFE2L2 (NFE2 like bZIP transcription factor 2) | 3 | -0.906 | 63.9 |
